The campaign covered roughly 340,000 compounds. About 170 (0.05%) were called active. Inconclusive results, whose numbers are uncertain, are shown with a selection of clear calls. Calls follow the shape of the dose curve; as a rule, active = well fitted inhibition curve with a large enough effect in the signal ratio, with a control signal flat (not every such curve was filed as active); inconclusive = small, poorly fitted or top-dose-only effect, or effect the other way, or a change in a side signal; inactive = flat fitted curve, though single readings scatter; the % refers to the signal ratio. Where the call is inconclusive, the potency comes from a doubtful curve fit.
Test: qHTS Assay to Find Inhibitors of Chronic Active B-Cell Receptor Signaling;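 as to activity change, negative = inhibition: plate controls were basal doxycycline-induced cells for no effect and cells given 10 µM MG132 for full effect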
Conditions: ABC-DLBCL IkBa-CBG/CBR reporter, luminescence ratio (green luciferase fused to IkBa over red control in TMD8 lymphoma cells), 4 h; activity change, negative = inhibition: at 46.1 µM (top of the series)
Summary of the method: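 TMD8 human ABC-DLBCL cells with doxycycline-inducible IκBα–green luciferase fusion and unfused red luciferase, in 0.5% FBS medium; compounds up to 46 uM, 4 h at 37C. Green/red luminescence ratio, filter-overlap corrected, fitted to concentration-response curves.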
Potency is read from the fitted curve at half-maximal effect.

Row | Compound | activity change, negative = inhibition | Potency
1 | O=C(OCC(=O)N1CCC(Cc2ccccc2)CC1)c1cccnc1Cl | inactive: -4.58% | –
2 | CCCc1cc(C(=O)N/N=C/c2ccc(CC)s2)c2ccccc2n1 | – | inconclusive: 12.6 µM [falling, partial curve, poor fit]
3 | COc1ccc(NC(=O)c2ccc(-n3c(C)ccc3C)cc2)c(OC)c1 | – | inconclusive: 35.5 µM [falling, single point]
4 | COCCSc1ccccc1C(=O)Nc1ccncc1 | inactive: -20% | –
5 | CCOC(=O)Cc1csc(N/C(=N/S(=O)(=O)c2ccc(Cl)cc2)c2ccccc2)n1 | inactive: 4.55% | –
6 | O=c1oc(-c2ccc(Br)o2)nc2ccccc12 | – | inconclusive: 6.51 µM [rising, single point]
7 | O=C(NC1CCCC1)c1sc(=S)n2c1[nH]c(=O)c1ccccc12 | inactive: 7.88% | –
8 | CN(C)S(=O)(=O)N(CC(=O)Nc1cccc(F)c1)c1ccccc1 | inconclusive: 5.87% | –
9 | CCOc1ccc2nc(NCCNC(=O)C3CC3)c(C)cc2c1 | inactive: 1.23% | –
10 | O=C(CSc1ccccn1)N/N=C/c1cc([N+](=O)[O-])ccc1O | inactive: -0.976% | –
11 | CSc1cccc(Nc2cc(C(=O)NCCCN(C)c3ccccc3)c3ccccc3n2)c1 | – | inconclusive: 0.316 µM [rising, full curve, poor fit]
12 | COc1ccc(-n2c(=S)[nH]c3cc(C(=O)Nc4ccc(C)c(F)c4)ccc3c2=O)c(OC)c1 | inconclusive: 13.5% | –
13 | COc1ccc(N2CCN(C(=O)c3ccc(NS(=O)(=O)c4cccs4)cc3)CC2)cc1 | inconclusive: 1.47% | –
14 | CCOC(=O)Cc1nnc(NC(=O)c2ncn[nH]2)s1 | inactive: 5.13% | –
15 | COc1ccc(NC(=O)CSc2nnc3ccc(-c4cccnc4)nn23)cc1 | inconclusive: 4.34% | –
16 | CCC(=O)Nc1nc2ccccc2n1CCN(C)C | inactive: 8.24% | –
17 | CCOC(=O)C1=C(c2ccccc2)NC(N)=NC1c1ccc(OCc2ccc(Cl)cc2)c(OC)c1 (stereo not drawn) | inactive: 11.3% | –
18 | COc1ccc(CCN2CCCC(CN(C)Cc3cccc(OC)c3)C2)cc1 (stereo not drawn) | inactive: -6.03% | –
19 | Nc1cc(=O)nc(SCC(=O)Nc2cccc3ccccc23)n1CCc1ccccc1 | inconclusive: 4.88% | –
20 | Cn1c(N)nc2ccccc2c1=O | inconclusive: 3.07% | –
21 | Oc1ccc(CNc2ccccc2F)c2cccnc12 | – | inconclusive: 35.5 µM [falling, single point]

Row | Compound | activity change, negative = inhibition | Potency
22 | COc1cc(NC(=O)c2cccc3c2C(=O)N(C2CCCCC2)C3)cc(OC)c1OC | inactive: 8.47% | –
23 | O=C(/C=C/c1ccccc1)NNC1=NS(=O)(=O)c2ccccc21 | – | inconclusive: 28.2 µM [falling, single point]
24 | Cc1ccc2oc3nc(C)c(C(=O)O)cc3c(=O)c2c1 | inconclusive: -0.584% | –
25 | CC(=O)c1ccc(N2CCN(C(=O)Cc3cccs3)CC2)cc1 | inconclusive: 0.327% | –
26 | CC1CCN(c2nc(N3CCCCC3)nc(N3CCCCC3)n2)CC1 | inconclusive: 6.22% | –
27 | Fc1ccc([C@@H]2CCNC[C@H]2COc2ccc3c(c2)OCO3)cc1 | – | inconclusive: 35.5 µM [falling, single point]
28 | COc1ccccc1NC(=O)Nc1ccnn1C1CCN(C(=O)c2cccnc2)CC1 | – | inconclusive: 35.5 µM [falling, single point]
29 | CCOC(=O)c1ccc(-n2nc(C)cc2C)cc1 | inconclusive: 7.15% | –
30 | COc1ccc(CCNc2nc(N3CCCCC3)nc(N3CCCCC3)n2)cc1OC | inconclusive: -0.705% | –
31 | CC(=O)Nc1ccc(NC(=O)c2ccc3c(c2)CCN3S(C)(=O)=O)cc1 | inconclusive: 5.67% | –
32 | C=CCNCCCCOc1ccc(OCc2ccccc2)cc1 | inconclusive: -0.662% | –
33 | CC1(C)O[C@@H]2[C@H](O1)[C@@H](CO)O[C@H]2n1cnc2c(N)ncnc21 | inactive: -0.0038% | –
34 | CCC(C(=O)Nc1sc(C(N)=O)c(C)c1C(=O)OC)c1ccccc1 (stereo not drawn) | inconclusive: 18.8% | –
35 | CCn1nnc(NC(=O)C(c2ccccc2)c2ccccc2)n1 | inconclusive: 0.489% | –
36 | COc1ccc(Br)cc1CNC(=O)C1CCCN(S(C)(=O)=O)C1 (stereo not drawn) | inconclusive: 0.82% | –
37 | ClCc1ncc(-c2ccc(Cl)cc2)o1 | inconclusive: 0.894% | –
38 | CNc1ncnc2c1cnn2-c1ccc(C)c(C)c1 | inconclusive: -2.93% | –
39 | CCOc1ccc(OCC)c(NC(=O)C2COc3ccccc3O2)c1 (stereo not drawn) | inconclusive: 2.56% | –
40 | CN(C)CCCNc1cc(C(C)(C)C)nc2c(-c3ccc(Cl)cc3)cnn12 | inconclusive: 3.01% | –
41 | CC(C)(C=O)C1=CC(=O)c2ccccc2C1=O | – | inconclusive: 29.1 µM [rising, single point]
42 | Cc1cccc(NC(=O)C2c3ccccc3Oc3ccccc32)n1 | – | inconclusive: 12.6 µM [rising, partial curve, poor fit]

Row | Compound | activity change, negative = inhibition | Potency
43 | COCCn1nnnc1C(c1cccc(C(F)(F)F)c1)N1CCN(Cc2ccccc2)CC1 (stereo not drawn) | inactive: 0.815% | –
44 | O=C(NCCc1nc2ccccc2[nH]1)/C(=C/c1ccco1)NC(=O)c1ccc(Br)o1 | – | inconclusive: 29.1 µM [falling, single point]
45 | CCC(=O)Nc1nc(C)c(-c2csc(Nc3ccc(C(=O)O)cc3)n2)s1 | – | inconclusive: 8.91 µM [falling, partial curve]
46 | CN(C)C(=O)c1ccc(COc2ccccc2Br)o1 | inconclusive: -5.54% | –
47 | O=C(c1ccc(-c2cccc(Cl)c2)o1)N1CCN(c2ccc([N+](=O)[O-])cc2)CC1 | inconclusive: -1.02% | –
48 | CCCCOC(=O)c1ccc(Nc2ncnc3nc[nH]c23)cc1 | inconclusive: 10.9% | –
49 | COCc1cc(C)nc(SCC(=O)Nc2ccc3c(c2)OCO3)c1C#N | inconclusive: -7.49% | –
50 | CCN=c1scc(C)n1/N=C/c1ccsc1 | inconclusive: 3.3% | –
51 | Cc1ccc(NC(=O)c2oc3ccccc3c2NC(=O)C2CC2)cc1 | inconclusive: 2.44% | –
52 | CCOc1cc(/C=C(\C#N)C(=O)NCC2CCCO2)ccc1O (stereo not drawn) | – | inconclusive: 20.6 µM [falling, partial curve, poor fit]
53 | CC(=O)Nc1ccc(Nc2cc(N3CCOCC3)c3nonc3c2[N+](=O)[O-])cc1 | – | inconclusive: 5.62 µM [falling, single point]
54 | CCN(CC)C(=O)C1CCCN(C(=O)Nc2ccccc2)C1 (stereo not drawn) | inconclusive: -12.2% | –
55 | NC(=O)c1ccc(-c2nnn(CC(=O)N(C3CCCC3)C3CCS(=O)(=O)C3)n2)cc1 (stereo not drawn) | inconclusive: -4.72% | –
56 | CCOC(=O)c1ccc(NC(=O)CC2Sc3ncnn3C2=O)cc1 (stereo not drawn) | inactive: 2.25% | –
57 | COc1ccc(/C(C)=N/NC(=O)c2cccc(S(=O)(=O)N3CCCC3)c2)c(O)c1 | inactive: -7.74% | –
58 | CC(C)Oc1ccccc1NC(=O)CSc1nc2ccccc2c(=O)n1C | inactive: -6.21% | –
59 | O=C(CSc1ccc([N+](=O)[O-])cn1)Nc1cc(C(F)(F)F)ccc1N1CCOCC1 | inconclusive: -0.416% | –
60 | CCOC(=O)N(C)c1ccc(C(O)(C(F)(F)F)C(F)(F)F)cc1 | inconclusive: -2.71% | –
61 | O=C(COC(=O)C1CC1)NC(=O)c1ccccc1 | inactive: -0.846% | –
62 | COc1ccccc1N1CCN(C(=O)c2cccc3c(=O)c(C)c(-c4ccccc4)oc23)CC1 | inconclusive: 10.8% | –
63 | CCOC(=O)N1CCN(C(=O)c2c[nH]c3ccc(S(=O)(=O)N(C)c4ccc(F)cc4)cc3c2=O)CC1 | inconclusive: 0.0623% | –

2 compounds picked at random from the list so far, as already listed:
Row | Compound | activity change, negative = inhibition | Potency
56 | CCOC(=O)c1ccc(NC(=O)CC2Sc3ncnn3C2=O)cc1 (stereo not drawn) | inactive: 2.25% | –
46 | CN(C)C(=O)c1ccc(COc2ccccc2Br)o1 | inconclusive: -5.54% | –

Remaining list, next part.

Row | Compound | activity change, negative = inhibition | Potency
64 | COc1cc2c(cc1OC)C1(NCC2)C(=O)Nc2ccccc21 (stereo not drawn) | inactive: -3.56% | –
65 | Cc1ccccc1NC(=O)c1sc(NC(=O)C2CC2)nc1C | inconclusive: 4.15% | –
66 | O=C(/C=N/NC(=O)c1ccc(Cl)cc1Cl)c1ccccc1 | inconclusive: 5.99% | –
67 | COc1ccc(Nc2oc(-c3ccco3)nc2S(=O)(=O)c2ccc(F)cc2)cc1 | inconclusive: 0.389% | –
68 | CN(c1ccccc1C(=O)Nc1ccc2c(c1)n(C)c(=O)n2C)S(C)(=O)=O | inconclusive: -0.351% | –
69 | COc1ccc(C2CC(=O)N(CC(=O)NCC3CCCO3)c3ccccc3S2)cc1OC (stereo not drawn) | – | inconclusive: 12.6 µM [falling, partial curve, poor fit]
70 | COc1ccc([C@H]2CC(=O)C=C(/C=C/Cc3ccccc3)C2)cc1 | – | inconclusive: 14.6 µM [rising, partial curve, poor fit]
71 | CCOC(=O)C1=C(c2ccccc2)NC(SC)=C(C#N)C1c1ccco1 (stereo not drawn) | inconclusive: -0.912% | –
72 | CCC(C)(C)C1CCC(=NNC(=S)Nc2ccccc2)CC1 (stereo not drawn) | – | inconclusive: 25.1 µM [falling, single point]
73 | COc1ccc2nc3oc(C(=O)NC4CCN(Cc5ccccc5)CC4)cc3cc2c1 | inactive: -0.209% | –
74 | COc1ccc(C=NNC(=O)c2ccccc2OCc2ccc(F)cc2)c(OC)c1 | – | inconclusive: 0.461 µM [falling, full curve, poor fit]
75 | CCOc1ccccc1CNC(=O)c1cc2oc3ccccc3c2n1C | inconclusive: 8.07% | –
76 | NC(=O)c1cc(NC(=O)COC(=O)CCCN2C(=O)c3cccc4cccc(c34)C2=O)cc(C(N)=O)c1 | inconclusive: 17.2% | –
77 | Cc1nc(NC(=O)CCc2ccccc2)sc1C | – | inconclusive: 22.4 µM [falling, single point]
78 | O=C(CCC(=O)N1CC2CCCN2c2ccccc21)NCc1ccc(Cl)cc1 (stereo not drawn) | inactive: 13.2% | –
79 | Cc1ccccc1CN1CCN(C(=O)c2ccc(S(=O)(=O)NCc3ccco3)cc2)CC1 | inactive: 0.723% | –
80 | Cc1cccc(NC(=O)CSc2nnc3[nH]c(=O)cc(-c4ccccc4)n23)c1C | inactive: 16.1% | –
81 | COc1ccc(C(=O)NCCn2cc(SCC(=O)NCC3CCCO3)c3ccccc32)cc1OC (stereo not drawn) | inconclusive: -0.0478% | –
82 | O=C1NC2(CCSC2)C(=O)N1CC(=O)N(Cc1ccccc1)C1CCS(=O)(=O)C1 (stereo not drawn) | inactive: 4.04% | –
83 | Cc1cc(OCCCCCNCCO)ccc1Cl | inconclusive: 9.88% | –

An excerpt from above in order of SMILES length, rising:
Row | Compound | activity change, negative = inhibition | Potency
75 | CCOc1ccccc1CNC(=O)c1cc2oc3ccccc3c2n1C | inconclusive: 8.07% | –
67 | COc1ccc(Nc2oc(-c3ccco3)nc2S(=O)(=O)c2ccc(F)cc2)cc1 | inconclusive: 0.389% | –
68 | CN(c1ccccc1C(=O)Nc1ccc2c(c1)n(C)c(=O)n2C)S(C)(=O)=O | inconclusive: -0.351% | –

— PubChem BioAssay AID493014 (National Center for Advancing Translational Sciences (NCATS), 2011)
